Conditions in all cases: stereoisomer not certain
Test [1] addresses OR4C3 (Homo sapiens) (UniProt Q8NH37). An outline of the steps:
(§1)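 Each receptor–molecule pair is labelled responsive or non-responsive (inactive) according to whether the original authors judged the measured signal statistically different from baseline. The data were taken from the main text and supplementary material of published papers and checked for typos and inconsistencies. Assay methods differed by source, with transient luciferase assays in mammalian cell lines being common.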

Chains of the proteins cited; added tags and fusions are not shown. A change or cut given only in a name is not applied to a line headed by its entry. Chains listed by the source or under a name are the forms on record and can include a tag or linker.
UniProt Q8NH37: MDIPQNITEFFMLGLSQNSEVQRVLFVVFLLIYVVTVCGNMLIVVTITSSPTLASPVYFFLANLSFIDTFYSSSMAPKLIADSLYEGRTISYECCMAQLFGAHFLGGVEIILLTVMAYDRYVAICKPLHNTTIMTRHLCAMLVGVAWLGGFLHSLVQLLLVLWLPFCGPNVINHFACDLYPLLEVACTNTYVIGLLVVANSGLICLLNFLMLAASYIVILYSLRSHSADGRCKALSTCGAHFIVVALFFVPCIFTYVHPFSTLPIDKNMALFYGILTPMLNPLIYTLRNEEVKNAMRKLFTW
UniProt Q8NH72: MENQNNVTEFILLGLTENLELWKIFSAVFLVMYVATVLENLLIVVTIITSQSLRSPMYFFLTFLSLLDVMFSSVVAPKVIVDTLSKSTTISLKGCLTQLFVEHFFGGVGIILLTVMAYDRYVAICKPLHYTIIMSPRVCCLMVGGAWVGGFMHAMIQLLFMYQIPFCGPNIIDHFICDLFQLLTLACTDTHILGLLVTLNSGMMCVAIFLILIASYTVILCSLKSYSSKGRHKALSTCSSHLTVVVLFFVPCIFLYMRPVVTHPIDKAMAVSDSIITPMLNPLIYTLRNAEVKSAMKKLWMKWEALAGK
UniProt Q8NGI6: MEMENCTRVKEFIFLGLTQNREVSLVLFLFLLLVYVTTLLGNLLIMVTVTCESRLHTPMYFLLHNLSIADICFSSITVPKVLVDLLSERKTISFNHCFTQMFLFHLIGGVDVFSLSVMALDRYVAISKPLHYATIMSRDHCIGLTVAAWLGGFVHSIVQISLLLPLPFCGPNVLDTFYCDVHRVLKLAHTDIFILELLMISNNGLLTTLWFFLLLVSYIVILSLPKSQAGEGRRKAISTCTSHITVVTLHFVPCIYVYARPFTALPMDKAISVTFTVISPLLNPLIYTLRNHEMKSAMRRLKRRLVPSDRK
UniProt Q8NGI4: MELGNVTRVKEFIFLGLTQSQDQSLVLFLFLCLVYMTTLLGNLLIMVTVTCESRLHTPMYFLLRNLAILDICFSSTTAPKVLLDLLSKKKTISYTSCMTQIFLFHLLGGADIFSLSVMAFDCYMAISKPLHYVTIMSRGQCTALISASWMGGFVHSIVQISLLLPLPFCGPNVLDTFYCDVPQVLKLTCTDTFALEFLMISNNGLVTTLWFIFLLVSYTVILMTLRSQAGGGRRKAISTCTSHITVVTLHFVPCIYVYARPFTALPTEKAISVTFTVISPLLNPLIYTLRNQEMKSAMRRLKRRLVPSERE
UniProt Q8NGN0: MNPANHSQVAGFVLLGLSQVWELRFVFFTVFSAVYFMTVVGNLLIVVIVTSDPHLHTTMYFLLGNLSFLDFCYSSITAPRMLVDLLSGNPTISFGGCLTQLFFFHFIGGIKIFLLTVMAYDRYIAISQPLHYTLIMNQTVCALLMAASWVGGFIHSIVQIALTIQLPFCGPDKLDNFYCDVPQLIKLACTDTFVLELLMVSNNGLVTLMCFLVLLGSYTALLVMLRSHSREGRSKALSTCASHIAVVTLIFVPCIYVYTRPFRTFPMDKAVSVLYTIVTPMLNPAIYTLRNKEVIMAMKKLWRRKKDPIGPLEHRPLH
UniProt P58180: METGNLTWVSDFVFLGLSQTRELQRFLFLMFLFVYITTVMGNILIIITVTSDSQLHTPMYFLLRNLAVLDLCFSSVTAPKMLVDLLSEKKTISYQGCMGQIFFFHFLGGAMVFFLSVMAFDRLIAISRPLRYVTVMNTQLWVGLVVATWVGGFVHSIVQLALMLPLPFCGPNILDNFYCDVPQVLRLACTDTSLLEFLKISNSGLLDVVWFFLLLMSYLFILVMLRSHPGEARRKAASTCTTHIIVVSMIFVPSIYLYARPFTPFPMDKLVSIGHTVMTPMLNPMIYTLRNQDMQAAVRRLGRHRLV
UniProt Q96R67: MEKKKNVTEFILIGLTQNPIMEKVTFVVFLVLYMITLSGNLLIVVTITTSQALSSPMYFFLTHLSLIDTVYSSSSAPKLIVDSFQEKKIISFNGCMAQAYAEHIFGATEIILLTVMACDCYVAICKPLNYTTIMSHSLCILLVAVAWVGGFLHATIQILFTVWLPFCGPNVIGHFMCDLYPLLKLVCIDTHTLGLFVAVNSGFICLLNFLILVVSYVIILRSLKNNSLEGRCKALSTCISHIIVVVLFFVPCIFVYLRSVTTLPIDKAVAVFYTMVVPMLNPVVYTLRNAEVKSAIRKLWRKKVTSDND
UniProt Q8NGM1: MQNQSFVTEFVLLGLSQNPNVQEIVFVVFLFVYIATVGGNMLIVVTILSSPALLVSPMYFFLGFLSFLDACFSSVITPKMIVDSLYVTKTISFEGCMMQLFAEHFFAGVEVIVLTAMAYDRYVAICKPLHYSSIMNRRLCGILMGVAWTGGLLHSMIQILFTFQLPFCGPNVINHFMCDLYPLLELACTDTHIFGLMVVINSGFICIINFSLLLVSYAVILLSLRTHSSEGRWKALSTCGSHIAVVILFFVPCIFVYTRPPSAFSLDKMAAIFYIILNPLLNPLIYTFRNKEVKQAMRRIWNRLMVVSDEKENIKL
UniProt A6NHA9: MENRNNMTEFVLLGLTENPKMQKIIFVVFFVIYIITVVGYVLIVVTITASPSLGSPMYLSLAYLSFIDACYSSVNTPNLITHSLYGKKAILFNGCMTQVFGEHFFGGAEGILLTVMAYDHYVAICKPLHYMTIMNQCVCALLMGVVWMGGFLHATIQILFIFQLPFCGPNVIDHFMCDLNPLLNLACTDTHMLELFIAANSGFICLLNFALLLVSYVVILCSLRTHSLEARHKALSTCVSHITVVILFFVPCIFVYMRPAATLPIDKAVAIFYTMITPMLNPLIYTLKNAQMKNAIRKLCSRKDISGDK
UniProt Q8NGB2: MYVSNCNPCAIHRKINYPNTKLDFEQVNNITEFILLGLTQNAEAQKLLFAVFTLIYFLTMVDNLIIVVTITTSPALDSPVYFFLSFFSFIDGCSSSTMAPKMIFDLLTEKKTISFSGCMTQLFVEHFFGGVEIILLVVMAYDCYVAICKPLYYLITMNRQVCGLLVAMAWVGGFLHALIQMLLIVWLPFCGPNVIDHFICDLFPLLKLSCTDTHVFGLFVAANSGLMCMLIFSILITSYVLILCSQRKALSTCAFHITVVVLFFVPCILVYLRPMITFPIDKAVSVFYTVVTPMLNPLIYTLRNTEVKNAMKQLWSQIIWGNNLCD
UniProt Q15615: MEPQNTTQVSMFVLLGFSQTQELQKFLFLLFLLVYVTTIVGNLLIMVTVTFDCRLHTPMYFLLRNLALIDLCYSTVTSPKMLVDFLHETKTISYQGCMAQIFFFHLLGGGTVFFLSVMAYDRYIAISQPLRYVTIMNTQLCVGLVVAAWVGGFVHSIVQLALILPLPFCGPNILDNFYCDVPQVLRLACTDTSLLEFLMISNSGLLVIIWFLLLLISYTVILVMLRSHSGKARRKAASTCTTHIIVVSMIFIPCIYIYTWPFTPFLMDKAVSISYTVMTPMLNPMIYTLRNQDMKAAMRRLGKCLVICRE
UniProt Q8NGJ1: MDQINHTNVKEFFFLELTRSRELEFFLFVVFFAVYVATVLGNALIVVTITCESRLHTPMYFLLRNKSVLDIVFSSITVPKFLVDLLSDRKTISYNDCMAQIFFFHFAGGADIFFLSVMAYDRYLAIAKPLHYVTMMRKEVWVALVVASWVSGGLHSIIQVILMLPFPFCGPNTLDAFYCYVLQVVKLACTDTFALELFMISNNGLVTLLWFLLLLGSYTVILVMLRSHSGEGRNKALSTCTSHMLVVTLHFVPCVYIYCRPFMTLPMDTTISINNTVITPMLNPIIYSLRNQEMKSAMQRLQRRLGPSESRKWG
OR4C5, as listed by the source: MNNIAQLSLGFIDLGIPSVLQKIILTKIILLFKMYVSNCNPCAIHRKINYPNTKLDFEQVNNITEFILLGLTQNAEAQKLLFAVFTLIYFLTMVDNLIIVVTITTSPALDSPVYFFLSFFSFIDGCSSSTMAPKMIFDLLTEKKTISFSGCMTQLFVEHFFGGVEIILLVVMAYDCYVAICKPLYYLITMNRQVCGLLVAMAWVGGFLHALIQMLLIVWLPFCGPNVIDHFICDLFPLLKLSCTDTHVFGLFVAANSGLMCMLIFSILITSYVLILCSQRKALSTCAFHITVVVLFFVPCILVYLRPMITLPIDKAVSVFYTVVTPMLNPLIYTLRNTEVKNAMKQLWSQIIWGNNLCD
OR4D1, as listed by the source: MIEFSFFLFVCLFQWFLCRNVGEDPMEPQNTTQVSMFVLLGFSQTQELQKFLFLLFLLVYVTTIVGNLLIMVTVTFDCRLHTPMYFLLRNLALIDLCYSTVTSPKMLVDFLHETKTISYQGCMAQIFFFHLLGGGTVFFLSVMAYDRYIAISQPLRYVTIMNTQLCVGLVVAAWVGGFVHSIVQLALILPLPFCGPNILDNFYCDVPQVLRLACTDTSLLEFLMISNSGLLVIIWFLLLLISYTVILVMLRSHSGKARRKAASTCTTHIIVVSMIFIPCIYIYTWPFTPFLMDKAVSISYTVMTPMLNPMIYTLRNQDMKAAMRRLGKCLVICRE
OR4CF, as listed by the source: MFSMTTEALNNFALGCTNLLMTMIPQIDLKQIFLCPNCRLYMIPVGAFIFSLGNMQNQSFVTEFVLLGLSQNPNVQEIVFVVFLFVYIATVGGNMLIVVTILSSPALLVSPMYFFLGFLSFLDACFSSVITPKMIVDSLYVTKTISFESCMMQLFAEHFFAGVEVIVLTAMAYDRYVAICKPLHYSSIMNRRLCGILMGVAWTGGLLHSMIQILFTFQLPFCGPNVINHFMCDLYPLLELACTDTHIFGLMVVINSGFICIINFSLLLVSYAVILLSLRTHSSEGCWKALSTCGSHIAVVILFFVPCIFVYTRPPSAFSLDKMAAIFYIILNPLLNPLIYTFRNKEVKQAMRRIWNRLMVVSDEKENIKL
OR4D2, as listed by the source: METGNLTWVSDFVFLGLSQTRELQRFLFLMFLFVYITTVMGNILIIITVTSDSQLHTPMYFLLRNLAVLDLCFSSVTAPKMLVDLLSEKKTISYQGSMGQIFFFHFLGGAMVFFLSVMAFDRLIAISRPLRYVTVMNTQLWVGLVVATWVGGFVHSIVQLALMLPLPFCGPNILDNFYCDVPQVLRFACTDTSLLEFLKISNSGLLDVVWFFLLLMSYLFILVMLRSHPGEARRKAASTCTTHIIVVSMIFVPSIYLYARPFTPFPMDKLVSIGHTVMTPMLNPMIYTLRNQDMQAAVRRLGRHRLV
OR4C3, as listed by the source: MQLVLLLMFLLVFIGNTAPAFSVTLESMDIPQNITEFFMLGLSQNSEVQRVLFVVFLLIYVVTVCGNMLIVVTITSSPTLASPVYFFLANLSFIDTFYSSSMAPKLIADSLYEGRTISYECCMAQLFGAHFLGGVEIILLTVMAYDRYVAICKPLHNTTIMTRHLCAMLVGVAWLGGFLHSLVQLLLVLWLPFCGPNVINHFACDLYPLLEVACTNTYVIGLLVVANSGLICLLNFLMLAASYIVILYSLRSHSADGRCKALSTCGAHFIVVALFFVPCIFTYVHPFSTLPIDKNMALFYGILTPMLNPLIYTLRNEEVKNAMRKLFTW
OR4CC, as listed by the source: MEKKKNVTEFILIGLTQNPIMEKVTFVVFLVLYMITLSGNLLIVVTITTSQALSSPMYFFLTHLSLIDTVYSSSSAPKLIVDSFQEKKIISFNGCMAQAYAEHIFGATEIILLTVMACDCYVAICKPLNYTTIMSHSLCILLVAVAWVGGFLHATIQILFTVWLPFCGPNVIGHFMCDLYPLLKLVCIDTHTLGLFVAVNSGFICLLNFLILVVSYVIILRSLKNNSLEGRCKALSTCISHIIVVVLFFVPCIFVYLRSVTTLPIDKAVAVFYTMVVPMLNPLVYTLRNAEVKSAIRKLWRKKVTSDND

The subject of test [2] is OR4C3. An outline of the steps:
as §1

Test [3] relates to OR4C5. An outline of the steps: as §1
In test [4] the target is OR4C6 (Homo sapiens) (UniProt Q8NH72). An outline of the steps:
as §1

Test [5] deals with OR4CC. An outline of the steps:
as §1

Test [6] relates to OR4CF. An outline of the steps:
as §1

Test [7] concerns T1, OR4CG.
T1 sequence (whole entry): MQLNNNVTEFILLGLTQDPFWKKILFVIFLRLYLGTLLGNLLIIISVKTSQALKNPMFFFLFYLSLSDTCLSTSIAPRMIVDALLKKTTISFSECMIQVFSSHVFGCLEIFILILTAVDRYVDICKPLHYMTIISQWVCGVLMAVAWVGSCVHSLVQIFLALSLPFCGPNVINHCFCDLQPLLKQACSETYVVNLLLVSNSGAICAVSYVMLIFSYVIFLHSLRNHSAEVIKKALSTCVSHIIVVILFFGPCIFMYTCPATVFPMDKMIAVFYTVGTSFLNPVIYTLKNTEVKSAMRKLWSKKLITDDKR
An outline of the steps:
as §1

In test [8] the target is OR4D10 (Homo sapiens) (UniProt Q8NGI6). An outline of the steps: as §1
Test [9] deals with OR4D11 (Homo sapiens) (UniProt Q8NGI4). An outline of the steps:
as §1

Test [10] concerns OR4D1. An outline of the steps: as §1
The test system of test [11] is OR4D2. An outline of the steps:
as §1

Test [12] concerns the target OR4D5 (Homo sapiens) (UniProt Q8NGN0). An outline of the steps: as §1
Test [13] concerns the target OR4D2 (Homo sapiens) (UniProt P58180). An outline of the steps: as §1
Test [14] addresses OR4C12 (Homo sapiens) (UniProt Q96R67). An outline of the steps: as §1
Test [15] concerns the target OR4C15 (Homo sapiens) (UniProt Q8NGM1). An outline of the steps:
as §1

Test [16] concerns the target OR4C16 (Homo sapiens) (UniProt Q8NGL9). An outline of the steps: as §1
Test [17] has as its target OR4C46 (Homo sapiens) (UniProt A6NHA9). An outline of the steps: as §1
Test [18] addresses OR4C5 (Homo sapiens) (UniProt Q8NGB2). An outline of the steps: as §1
Test [19] has as its target OR4D1 (Homo sapiens) (UniProt Q15615). An outline of the steps:
as §1

Test [20] deals with OR4D6 (Homo sapiens) (UniProt Q8NGJ1). An outline of the steps: as §1

Only a part is listed here, and it is no random draw. The calls were merged from several studies; some rest on single wells. The list shows a part of the results.
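Note: active if original authors judged signal statistically different from baseline.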

As to `CC(=O)C(C)=O`, the “odorant receptor agonist call” value in test [1], in test [2], in test [3], in test [4], in test [5] and in test [6] was “inactive” throughout. For the same molecule, the “odorant receptor agonist call” value in [7], in test [8], in test [9], in test [10], in [11] and in test [12] was “inactive” in each case.
As to `CC12C=CCC1C1CCC3=CC(=O)CCC3(C)C1CC2` (centres undefined), the “odorant receptor agonist call” value in [1], in test [2], in test [3], in [4], in test [5] and in [6] was “inactive” in each case. Besides, the “odorant receptor agonist call” value in test [7], in test [8], in test [9], in test [10], in [11] and in test [12] was “inactive” throughout.
On to `CCCCCCOC(=O)CCC`, for which the “odorant receptor agonist call” value in [1], in test [2], in test [3], in test [4], in test [5] and in test [6] was “inactive” each time. In addition, the “odorant receptor agonist call” value in test [7], in test [8], in test [9], in test [10], in [11] and in test [12] was “inactive” in each case.
`O=CCc1ccccc1`: the “odorant receptor agonist call” value in test [1], in test [2], in test [3], in test [4], in [5] and in [6] was “inactive” each time. The “odorant receptor agonist call” value in [8], in [9], in test [10] and in [11] was “inactive” throughout. Also, the “odorant receptor agonist call” value in test [7] and in test [12] was “active” in each case.
In the case of `CC(C)C=O`, the “odorant receptor agonist call” value in test [1], in [2], in test [3], in [4], in test [5] and in test [6] was “inactive” in each case. The “odorant receptor agonist call” value in [7], in test [8], in test [9], in [10], in test [11] and in [12] was “inactive” each time.
As to `C=CC(C)(O)CCC=C(C)C` (centres undefined), the “odorant receptor agonist call” value in test [1], in test [2], in [3], in test [4], in test [5] and in test [6] was “inactive” each time. In addition, the “odorant receptor agonist call” value in [7], in test [8], in test [9], in test [10], in [11] and in test [12] was “inactive” throughout.
For `CC1=CCC(C(C)(C)O)CC1` (centres undefined), the “odorant receptor agonist call” value in [1], in [2], in test [3], in test [4], in [5] and in [6] was “inactive” throughout. Also, the “odorant receptor agonist call” value in test [7], in [8], in [9], in [10], in test [11] and in [12] was “inactive” each time.
For the molecule `CCCCCCCOC(C)=O`, the “odorant receptor agonist call” value in [1], in [2], in test [3], in test [4], in [5] and in test [6] was “inactive” throughout. For the same molecule, the “odorant receptor agonist call” value in test [7], in test [8], in [9], in test [10], in test [11] and in [12] was “inactive” each time.
On to `C=CCc1ccc(OC(C)=O)c(OC)c1`, for which the “odorant receptor agonist call” value in [1], in test [2], in test [3], in [4], in test [6] and in test [7] was “inactive” each time. The “odorant receptor agonist call” value in test [8], in test [9] and in test [10] was “inactive” in each case. The “odorant receptor agonist call” value in test [5], in test [13] and in [12] was “active” each time.
`CC(C)CC(=O)O`: the “odorant receptor agonist call” value in test [1], in [2], in [3], in test [4], in test [6] and in test [7] was “inactive” each time. For the same molecule, the “odorant receptor agonist call” value in test [8], in [9], in [10], in test [11] and in test [12] was “inactive” throughout. The “odorant receptor agonist call” value in [5] is “active”.
Consider `C=CCSCC=C`, for which the “odorant receptor agonist call” value in test [1], in [2], in test [3], in test [4], in [5] and in test [6] was “inactive” throughout. Moreover, the “odorant receptor agonist call” value in [7], in [8], in test [9], in test [10], in test [11] and in test [12] was “inactive” each time.
With `CC(=O)OCC=C(C)CCC=C(C)C`, the “odorant receptor agonist call” value in test [1], in [2], in [3], in test [4], in test [6] and in test [8] was “inactive” in each case. In addition, the “odorant receptor agonist call” value in test [9], in test [10] and in test [11] was “inactive” throughout. The “odorant receptor agonist call” value in test [5], in test [7] and in test [12] was “active” each time.
With `COc1ccccc1O`, the “odorant receptor agonist call” value in test [1], in test [2], in test [3], in test [4], in [5] and in test [6] was “inactive” throughout. Also, the “odorant receptor agonist call” value in [7], in test [8], in test [9], in test [10], in [11] and in test [12] was “inactive” throughout.
For the molecule `COC(=O)c1ccccc1O`, the “odorant receptor agonist call” value in [1], in test [2], in test [3], in test [4], in test [5] and in test [6] was “inactive” each time. For the same molecule, the “odorant receptor agonist call” value in test [7], in test [8], in test [9], in test [10], in [11] and in test [12] was “inactive” in each case.
Regarding `COc1cc(C)ccc1O`, the “odorant receptor agonist call” value in test [1], in test [2], in test [3], in test [4], in [5] and in [6] was “inactive” each time. Besides, the “odorant receptor agonist call” value in test [7], in test [8], in test [9], in test [10], in test [11] and in test [12] was “inactive” in each case.
In the case of `CC(=O)OC1CC2CCC1(C)C2(C)C` (centres undefined), the “odorant receptor agonist call” value in [1], in [2], in test [3], in [4], in test [5] and in test [6] was “inactive” in each case. Further, the “odorant receptor agonist call” value in test [7], in test [8], in [9], in [10], in [11] and in test [12] was “inactive” each time.
`CCCCCCCCCCC=O`: the “odorant receptor agonist call” value in [1], in test [2], in test [3], in [4], in test [5] and in [6] was “inactive” throughout. The “odorant receptor agonist call” value in test [7], in [8], in test [9], in test [10], in test [11] and in test [12] was “inactive” in each case.
For the molecule `CC12C=CCC1C1CCC3CC(=O)CCC3(C)C1CC2` (centres undefined), the “odorant receptor agonist call” value in [14], in [15], in test [16], in test [1], in test [2] and in test [17] was “inactive” throughout. Moreover, the “odorant receptor agonist call” value in test [18], in test [3], in [6], in test [7], in [19] and in test [9] was “inactive” throughout. The “odorant receptor agonist call” value in [10], in test [13], in test [11], in test [12] and in test [20] was “inactive” each time. In test [5], the “odorant receptor agonist call” value is “active”.
For `CC12CCC(C1)C(C)(C)C2=O` (centres undefined), the “odorant receptor agonist call” value in test [1], in test [2], in test [3], in [4], in test [5] and in test [6] was “inactive” in each case. Besides, the “odorant receptor agonist call” value in [7], in test [8], in [9], in test [10] and in test [11] was “inactive” each time. Besides, the “odorant receptor agonist call” value in test [12] was “active”.
`CC(C)C(=O)O`: the “odorant receptor agonist call” value in test [1], in test [2], in test [3], in test [4], in test [5] and in test [6] was “inactive” throughout. The “odorant receptor agonist call” value in test [7], in test [8], in test [9], in test [10], in [11] and in test [12] was “inactive” in each case.
As to `CC(=O)OC(C)(C)C1CC=C(C)CC1` (centres undefined), the “odorant receptor agonist call” value in test [1], in test [2], in test [3], in test [4], in test [5] and in [6] was “inactive” in each case. Also, the “odorant receptor agonist call” value in test [7], in test [8], in test [9], in test [10], in [11] and in test [12] was “inactive” each time.
For the molecule `COc1cc(C=O)ccc1O`, the “odorant receptor agonist call” value in test [1], in test [2], in test [3], in test [4], in [5] and in [6] was “inactive” in each case. Also, the “odorant receptor agonist call” value in test [7], in test [8], in test [9], in [10], in test [11] and in test [12] was “inactive” in each case.
For `c1cnccn1`, the “odorant receptor agonist call” value in [1], in test [2], in test [3], in test [4], in test [5] and in [6] was “inactive” in each case. Also, the “odorant receptor agonist call” value in [7], in [8], in test [9], in test [10], in test [11] and in [12] was “inactive” in each case.
As for `CC(C)=CCCC(C)=CC=O`, the “odorant receptor agonist call” value in test [1], in test [2], in [3], in test [4], in test [5] and in test [6] was “inactive” each time. Moreover, the “odorant receptor agonist call” value in test [7], in test [8], in test [9], in [10], in test [11] and in [12] was “inactive” each time.

For the origin of these results see the M2OR odorant receptor database.
